No constants are given. Whether binding was seen depends on the method and setting. In cells and extracts the contact can be indirect. Binding can be weak; no strength is given.
Molecular target: OsELF3-1 (split-luciferase fusion) (rice (O. sativa subsp. japonica, Zhonghua 11)) (UniProt Q9SNQ6)
Assay: split reporter

By UniProt entry, the sequences of proteins in these tests, tags left out. Where a name states a change or a piece, a line headed by the entry shows the natural chain unless it says otherwise.
UniProt Q9SNQ6: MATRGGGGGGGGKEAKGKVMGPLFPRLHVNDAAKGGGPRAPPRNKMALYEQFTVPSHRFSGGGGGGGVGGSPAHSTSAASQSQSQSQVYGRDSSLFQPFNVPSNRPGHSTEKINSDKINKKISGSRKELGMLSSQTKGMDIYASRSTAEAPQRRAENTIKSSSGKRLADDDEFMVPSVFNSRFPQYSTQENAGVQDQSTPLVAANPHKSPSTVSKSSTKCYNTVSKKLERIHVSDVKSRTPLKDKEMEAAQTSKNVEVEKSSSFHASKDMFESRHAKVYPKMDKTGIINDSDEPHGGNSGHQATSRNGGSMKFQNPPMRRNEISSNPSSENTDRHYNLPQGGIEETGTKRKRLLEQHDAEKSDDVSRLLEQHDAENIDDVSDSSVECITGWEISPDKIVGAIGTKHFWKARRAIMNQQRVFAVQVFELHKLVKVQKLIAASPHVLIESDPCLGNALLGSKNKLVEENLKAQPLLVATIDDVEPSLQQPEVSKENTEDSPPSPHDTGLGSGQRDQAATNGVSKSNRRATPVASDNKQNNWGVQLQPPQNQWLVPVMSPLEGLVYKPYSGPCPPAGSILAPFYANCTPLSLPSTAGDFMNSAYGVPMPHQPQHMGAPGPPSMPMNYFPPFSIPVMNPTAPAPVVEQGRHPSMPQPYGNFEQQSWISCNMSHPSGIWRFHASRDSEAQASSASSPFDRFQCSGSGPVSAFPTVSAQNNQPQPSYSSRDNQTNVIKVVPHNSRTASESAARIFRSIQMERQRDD
UniProt Q657D6: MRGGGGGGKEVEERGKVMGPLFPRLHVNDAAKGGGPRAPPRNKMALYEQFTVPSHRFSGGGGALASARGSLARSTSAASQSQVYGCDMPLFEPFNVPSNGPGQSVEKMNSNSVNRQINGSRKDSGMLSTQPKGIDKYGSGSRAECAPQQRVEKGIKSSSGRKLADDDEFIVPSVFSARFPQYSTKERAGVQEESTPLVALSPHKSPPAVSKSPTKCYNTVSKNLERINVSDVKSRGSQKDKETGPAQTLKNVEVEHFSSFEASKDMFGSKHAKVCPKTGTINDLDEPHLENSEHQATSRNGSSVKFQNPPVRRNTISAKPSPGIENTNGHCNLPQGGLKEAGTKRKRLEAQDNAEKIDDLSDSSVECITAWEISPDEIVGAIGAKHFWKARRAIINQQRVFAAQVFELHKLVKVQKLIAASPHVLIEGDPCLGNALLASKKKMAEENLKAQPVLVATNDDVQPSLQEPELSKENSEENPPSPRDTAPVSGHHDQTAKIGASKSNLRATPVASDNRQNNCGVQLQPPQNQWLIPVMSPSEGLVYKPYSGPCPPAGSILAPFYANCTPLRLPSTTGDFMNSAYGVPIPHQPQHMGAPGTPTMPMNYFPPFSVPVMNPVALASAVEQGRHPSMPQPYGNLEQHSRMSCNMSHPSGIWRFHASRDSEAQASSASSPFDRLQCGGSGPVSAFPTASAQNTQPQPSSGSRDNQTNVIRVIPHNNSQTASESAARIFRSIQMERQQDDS

For “OsELF3-2 (split-luciferase fusion) (from UniProt Q657D6)”, the binding was “binds”.

Reference: doi:10.1101/2024.11.13.623495
